# Source: PubChem BioAssay AID588590 (National Center for Advancing Translational Sciences (NCATS), 2011)
# Protein sequences, listed by entry. Tags and fused reporters are not part of them. Lines headed by an entry give the natural chain unless they say otherwise; changes in a name come on top.
# UniProt Q9UNA4: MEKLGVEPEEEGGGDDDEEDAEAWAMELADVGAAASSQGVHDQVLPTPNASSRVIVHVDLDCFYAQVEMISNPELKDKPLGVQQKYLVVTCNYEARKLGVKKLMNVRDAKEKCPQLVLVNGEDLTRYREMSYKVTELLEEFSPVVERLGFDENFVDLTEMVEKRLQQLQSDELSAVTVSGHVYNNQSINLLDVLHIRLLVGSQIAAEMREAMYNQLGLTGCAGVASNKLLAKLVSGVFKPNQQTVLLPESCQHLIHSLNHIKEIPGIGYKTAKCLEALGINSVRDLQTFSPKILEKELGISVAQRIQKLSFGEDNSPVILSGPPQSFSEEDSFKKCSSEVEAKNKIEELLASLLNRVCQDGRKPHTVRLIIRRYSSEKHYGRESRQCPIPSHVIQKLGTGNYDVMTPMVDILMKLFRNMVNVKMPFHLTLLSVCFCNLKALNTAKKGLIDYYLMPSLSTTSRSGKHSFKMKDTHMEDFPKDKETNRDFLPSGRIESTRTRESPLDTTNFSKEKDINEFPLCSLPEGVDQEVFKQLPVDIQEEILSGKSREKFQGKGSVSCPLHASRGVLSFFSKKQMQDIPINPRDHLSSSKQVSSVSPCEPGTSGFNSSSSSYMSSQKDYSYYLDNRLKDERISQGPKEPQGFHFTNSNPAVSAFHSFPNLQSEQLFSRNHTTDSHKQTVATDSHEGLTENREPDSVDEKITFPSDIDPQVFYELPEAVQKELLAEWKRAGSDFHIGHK
# Screen size: about 390,000 compounds; about 4,000 (1%) were called active. The shares of active, inactive and inconclusive entries below differ from those in the screen. Calls follow the shape of the dose curve; as a rule, active = well fitted inhibition curve with a large enough effect; inconclusive = small, poorly fitted or top-dose-only effect, or another doubt; inactive = no such curve, though single readings can be large or run the other way. A potency beside an inconclusive call is a rough fit, not a confirmed value.
# Molecular target: DNA polymerase iota (Homo sapiens) (UniProt Q9UNA4)
# Assay: qHTS for Inhibitors of Polymerase Iota
# Settings: Pol iota fluorescent replication assay, 10 min; series mostly up to 115 µM
# In short: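 Pol iota at 10 nM preincubated 15 min with compounds at room temperature; reaction started with fluorescent substrate, 50 nM final. Fluorescence read kinetically at 0 and 10 min; buffer-only wells as negative control.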
# Potency is read from the fitted curve at half-maximal effect.
row,Compound,Potency
1,COc1ccc(N2C(=O)NC(=O)/C(=C\c3cn(CC(=O)N4CCOCC4)c4ccccc34)C2=O)c(OC)c1,active: 12.6 µM
2,Cc1sc2ncnc(N3CCC(C(=O)Nc4ccc(C#N)c(Cl)c4)CC3)c2c1C,inactive
3,Cc1cc(/C=C2\C(=O)NC(=O)N(Cc3ccco3)C2=O)c(C)n1-c1ccc(C(=O)O)cc1,active: 17.8 µM
4,N#Cc1c(/N=C/c2cc(Br)cs2)sc2c1CCC2,"inconclusive: 35.5 µM [inhibitor, single point]"
5,Cc1nonc1-c1nc(-c2nonc2N)n[nH]1,"inconclusive: 8.91 µM [inhibitor, partial curve, poor fit]"
6,Cc1cc(C(C#N)c2ccc(Cl)cc2)c(Cl)cc1NC(=O)c1cc(I)cc(I)c1O (stereo unspecified),"inconclusive: 15.8 µM [inhibitor, partial curve, poor fit]"
7,COc1cc(C2c3cc4c(c(O)c3CC3COC(=O)C32)OCO4)cc(OC)c1O (stereo unspecified),"inconclusive: 79.4 µM [inhibitor, partial curve, poor fit]"
8,COC1C(C)OC(OC2CC(C)(O)Cc3cc4c(c(O)c32)C(=O)c2c(O)cc3c(c2C4=O)OC2OC3(C)C(O)C(N(C)C)C2O)C(OC)C1(C)OC (stereo unspecified),"inconclusive: 56.2 µM [inhibitor, partial curve, poor fit]"
9,COc1cccc(N2CCN(Cc3cccc(Cl)c3)CC2)c1,"inconclusive: 10 µM [inhibitor, partial curve]"
10,O=c1[nH]c(=O)n(-c2cccc(F)c2)c(O)c1/C=C1\C=Nc2ccccc21,active: 14.1 µM
11,COCCNC(=O)c1c(N)n(CCC(C)C)c2nc3ccccc3nc12,"inconclusive: 10 µM [inhibitor, partial curve, poor fit]"
12,O=C1Nc2ccccc2C1Cc1nc2ccccc2c(=O)n1-c1ccccc1 (stereo unspecified),"inconclusive: 25.1 µM [inhibitor, partial curve, poor fit]"
13,CN(C)c1ccc(/C=C2\C(=O)NC(=O)N(CCc3ccc(F)cc3)C2=O)cc1,"inconclusive: 14.1 µM [inhibitor, partial curve]"
14,CCOc1ccc2nc(N3CCC(C(=O)N4CCC5(CC4)OCCO5)CC3)sc2c1,"inconclusive: 56.2 µM [inhibitor, partial curve, poor fit]"
15,Cc1cc(Br)ccc1N1C(=O)CC(=O)NC1=O,"inconclusive: 14.1 µM [inhibitor, partial curve, poor fit]"
16,CCOC(=O)Cc1[nH]nc2c1C(c1ccoc1)C(C#N)=C(N)O2 (stereo unspecified),"inconclusive: 12.6 µM [inhibitor, full curve, poor fit]"

# Random excerpt: two compounds from above
row,Compound,Potency
1,COc1ccc(N2C(=O)NC(=O)/C(=C\c3cn(CC(=O)N4CCOCC4)c4ccccc34)C2=O)c(OC)c1,active: 12.6 µM
15,Cc1cc(Br)ccc1N1C(=O)CC(=O)NC1=O,"inconclusive: 14.1 µM [inhibitor, partial curve, poor fit]"
